Results are given in words; binding and its absence hold for the method and conditions named. In cells and extracts the contact can be indirect. A result given as binding can be weak or reduced; the word gives no strength. Sequences can lack the tags named with a protein.
B1: GFP-USP8 (protein, UniProt P40818 1-1118)
chain: MPAVASVPKELYLSSSLKDLNKKTEVKPEKISTKSYVHSALKIFKTAEECRLDRDEERAYVLYMKYVTVYNLIKKRPDFKQQQDYFHSILGPGNIKKAVEEAERLSESLKLRYEEAEVRKKLEEKDRQEEAQRLQQKRQETGREDGGTLAKGSLENVLDSKDKTQKSNGEKNEKCETKEKGAITAKELYTMMTDKNISLIIMDARRMQDYQDSCILHSLSVPEEAISPGVTASWIEAHLPDDSKDTWKKRGNVEYVVLLDWFSSAKDLQIGTTLRSLKDALFKWESKTVLRNEPLVLEGGYENWLLCYPQYTTNAKVTPPPRRQNEEVSISLDFTYPSLEESIPSKPAAQTPPASIEVDENIELISGQNERMGPLNISTPVEPVAASKSDVSPIIQPVPSIKNVPQIDRTKKPAVKLPEEHRIKSESTNHEQQSPQSGKVIPDRSTKPVVFSPTLMLTDEEKARIHAETALLMEKNKQEKELRERQQEEQKEKLRKEEQEQKAKKKQEAEENEITEKQQKAKEEMEKKESEQAKKEDKETSAKRGKEITGVKRQSKSEHETSDAKKSVEDRGKRCPTPEIQKKSTGDVPHTSVTGDSGSGKPFKIKGQPESGILRTGTFREDTDDTERNKAQREPLTRARSEEMGRIVPGLPSGWAKFLDPITGTFRYYHSPTNTVHMYPPEMAPSSAPPSTPPTHKAKPQIPAERDREPSKLKRSYSSPDITQAIQEEEKRKPTVTPTVNRENKPTCYPKAEISRLSASQIRNLNPVFGGSGPALTGLRNLGNTCYMNSILQCLCNAPHLADYFNRNCYQDDINRSNLLGHKGEVAEEFGIIMKALWTGQYRYISPKDFKITIGKINDQFAGYSQQDSQELLLFLMDGLHEDLNKADNRKRYKEENNDHLDDFKAAEHAWQKHKQLNESIIVALFQGQFKSTVQCLTCHKKSRTFEAFMYLSLPLASTSKCTLQDCLRLFSKEEKLTDNNRFYCSHCRARRDSLKKIEIWKLPPVLLVHLKRFSYDGRWKQKLQTSVDFPLENLDLSQYVIGPKNNLKKYNLFSVSNHYGGLDGGHYTAYCKNAARQRWFKFDDHEVSDISVSSVKSSAAYILFYTSLGPRVTDVAT
B2: HA-Nrdp1 (pcDNA3.1 3x-HA-Nrdp1) (protein, UniProt Q9H4P4 1-317)
chain: MGYDVTRFQGDVDEDLICPICSGVLEEPVQAPHCEHAFCNACITQWFSQQQTCPVDRSVVTVAHLRPVPRIMRNMLSKLQIACDNAVFGCSAVVRLDNLMSHLSDCEHNPKRPVTCEQGCGLEMPKDELPNHNCIKHLRSVVQQQQTRIAELEKTSAEHKHQLAEQKRDIQLLKAYMRAIRSVNPNLQNLEETIEYNEILEWVNSLQPARVTRWGGMISTPDAVLQAVIKRSLVESGCPASIVNELIENAHERSWPQGLATLETRQMNRRYYENYVAKRIPGKQAVVVMACENQHMGDDMVQEPGLVMIFAHGVEEI

Assays:
[1] = biological target: Flag-CLEC16A WT (wild type full-length CLEC16A, pFLAG-CMV-5a-Clec16a WT) (mouse) (UniProt Q80U30); test: co-IP
[2] = biological target: Flag-CLEC16A ΔC (CLEC16A lacking the C-terminal IDPR, AA 1-892) (mouse) (UniProt Q80U30); test: co-IP

Row | Binder | binding [1] | binding [2]
1 | B1 | binds | binds
2 | B2 | binds | binds

Reference: doi:10.1101/2021.09.03.458272
